Data published in US20210179680A1, “POLYPEPTIDE, DERIVATIVES THEREOF, AND APPLICATION THEREOF IN PREPARATION OF DRUGS HAVING RESISTANCE TO PULMONARY FIBROSIS” (priority 2016, published 2021).
No constants are given. Whether binding was seen depends on the method and setting. Some results given as binding are weak or reduced against the parent protein; the word gives no strength.

The chains behind the UniProt entries cited, without tags or fusion partners.
UniProt Q96RU7: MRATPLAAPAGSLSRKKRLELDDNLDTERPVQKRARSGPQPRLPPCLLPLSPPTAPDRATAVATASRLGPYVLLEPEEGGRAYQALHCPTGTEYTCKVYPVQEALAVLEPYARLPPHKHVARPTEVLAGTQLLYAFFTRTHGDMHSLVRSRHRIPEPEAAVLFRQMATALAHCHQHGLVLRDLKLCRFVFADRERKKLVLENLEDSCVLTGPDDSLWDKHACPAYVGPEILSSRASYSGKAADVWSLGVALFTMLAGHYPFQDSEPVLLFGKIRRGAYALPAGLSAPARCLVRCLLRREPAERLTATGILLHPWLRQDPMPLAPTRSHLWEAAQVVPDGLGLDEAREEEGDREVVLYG

Columns and labels:
[1] = target: Purified TRB3 protein (purchased from RD) (UniProt Q96RU7); assay: SPR, Biacore T200
[2] = target: Purified TRB3 protein (purchased from RD) (UniProt Q96RU7); assay: SPR
[3] = target: Purified TRB3 protein (purchased from RD) (UniProt Q96RU7); assay: SPR (Biacore T200), TRB3 amine-coupled to the chip, peptide injected at 3.125-800 nM, HBS-EP, 25 C

- binding [1]: binds
- binding [2]: binds
- binding [3]: binds
B1: polypeptide MR2 (peptide)
peptide: HLMACFTCAKKLKKR
